{"source": "paper PMC11780131", "biological_target": "T1, enhanced green fluorescent protein-tagged mouse 2B4 (m2B4-EGFP) (mouse) (UniProt Q07763)", "T1 sequence": "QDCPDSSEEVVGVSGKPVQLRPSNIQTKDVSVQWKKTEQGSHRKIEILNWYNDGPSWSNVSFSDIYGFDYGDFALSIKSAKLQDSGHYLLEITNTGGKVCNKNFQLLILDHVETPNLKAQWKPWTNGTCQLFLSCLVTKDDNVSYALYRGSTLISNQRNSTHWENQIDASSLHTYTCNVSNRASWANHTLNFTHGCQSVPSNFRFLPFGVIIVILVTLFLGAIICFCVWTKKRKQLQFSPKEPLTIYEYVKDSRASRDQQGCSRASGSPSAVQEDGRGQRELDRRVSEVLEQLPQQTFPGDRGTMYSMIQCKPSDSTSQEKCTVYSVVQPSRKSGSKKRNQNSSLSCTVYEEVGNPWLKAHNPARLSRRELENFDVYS", "assay": "co-IP; 2D12 cells expressing 2B4-EGFP and Fyn-HaloTag, not transduced or transduced with SAP, stimulated by mCD48-deleted or mCD48-expressing EL-4 cells prepulsed by MCC88-103; lysis buffer 50 mM Tris-HCl, 50 mM NaCl, 5 mM EDTA, 1% NP-40; immunoprecipitated for 2B4 by anti-GFP (RQ2); blotted with anti-SAP, anti-Fyn", "note": "Results are given in words; binding and its absence hold for the method and conditions named. In cells and extracts the contact can be indirect. Some binding calls cover weakened binding; strength is not graded here. Where a sequence is shown, tags or fusion partners need not be part of it."}
{"binder": "SLAM-associated protein (SAP) (protein, UniProt O88890 1-126) MDAVTVYHGKISRETGEKLLLATGLDGSYLLRDSESVPGVYCLCVLYQGYIYTYRVSQTETGSWSAETAPGVHKRFFRKVKNLISAFQKPDQGIVTPLQYPVEKSSGRGPQAPTGRRDSDICLNAP", "values": [{"measurement": "binding", "value": "binds"}]}
